Data as given in PubChem BioAssay AID1159578 (Peter MacCallum Cancer Centre, 2015)
The deposit covers about 18,000 reagents; shown is an unselected part. Of all reagents, about 1,030 (5.7%) are marked active. 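Inactive calls also include pools with fewer than 3300 nuclei, whose migration was not assessed.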 Raw values are not corrected between plates. Further read-outs or replicates are left out here.

- Purpose: 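siRNA pools altering how lymphatic endothelial cells close a scratch wound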 (primary screen)
- Cell system: human lymphatic endothelial cells
- Reagents: siRNA pool against human genes, 40 nM
- Duration: 48 h after transfection
- Detection: 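High-content imaging of dye-stained cells in a scratch assay measures filled wound area and nuclei per well; duplicate means given as ratio to mock and robust z-score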
- Scale: migration robust z-score: higher = faster migration into the scratch; nuclei per well: higher = more cells in the well
- Hit rule: 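Pools averaging fewer than 3300 nuclei are never called; remaining pools count as changed when migration robust z lies outside -2 to 2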
- Meaning of the calls: active = migration changed; inactive = no migration change, or too few cells

| gene | migration robust z-score | nuclei per well, duplicate mean | activity call |
| --- | --- | --- | --- |
| TFPI2 (tissue factor pathway inhibitor 2) | -1.03 | 6388 | inactive |
| PTDSS1 (phosphatidylserine synthase 1) | -2.1 | 3752 | active |
| LCN1 (lipocalin 1) | -0.5 | 7450 | inactive |
| CMTM7 (CKLF like MARVEL transmembrane domain containing 7) | -1.58 | 4748 | inactive |
| ZNF137P (zinc finger protein 137, pseudogene) | -0.23 | 5854 | inactive |
| FOXJ1 (forkhead box J1) | -0.34 | 5216 | inactive |
| ANKRD30A (ankyrin repeat domain 30A) | 0.7 | 5392 | inactive |
| ANKS4B (ankyrin repeat and sterile alpha motif domain containing 4B) | 0.9 | 7174 | inactive |
| CCKAR (cholecystokinin A receptor) | 1.38 | 4537 | inactive |
| GATC (glutamyl-tRNA amidotransferase subunit C) | 0.6 | 5314 | inactive |
| G6PC1 (glucose-6-phosphatase catalytic subunit 1) | -0.16 | 5186 | inactive |
| RBMX (RNA binding motif protein X-linked) | -1.46 | 5901 | inactive |
| TXLNG (taxilin gamma) | 0.52 | 5859 | inactive |
| MDM4 (MDM4 regulator of p53) | 0.86 | 6728 | inactive |
| ZNF71 (zinc finger protein 71) | -1.29 | 4610 | inactive |
| SUMO4 (small ubiquitin like modifier 4) | -0.22 | 5411 | inactive |
| DMBX1 (diencephalon/mesencephalon homeobox 1) | 0.25 | 5233 | inactive |
| SPATA9 (spermatogenesis associated 9) | 0.2 | 5628 | inactive |
| GFRAL (GDNF family receptor alpha like) | -0.38 | 5937 | inactive |
| ADAT3 (adenosine deaminase tRNA specific 3) | 0.43 | 5740 | inactive |
| PPP2R1A (protein phosphatase 2 scaffold subunit Aalpha) | 0.02 | 5987 | inactive |
| ASB7 (ankyrin repeat and SOCS box containing 7) | -2.08 | 5724 | active |
| KRTAP12-4 (keratin associated protein 12-4) | -0.78 | 6470 | inactive |
